No constants are given. Whether binding was seen depends on the method and setting. Some results given as binding are weak or reduced against the parent protein; the word gives no strength.
Biological target: T1, carboxy terminal domain of Human Pancreatic Lipase (human) (UniProt P16233)
T1 sequence (biotinylated for selection, looked up): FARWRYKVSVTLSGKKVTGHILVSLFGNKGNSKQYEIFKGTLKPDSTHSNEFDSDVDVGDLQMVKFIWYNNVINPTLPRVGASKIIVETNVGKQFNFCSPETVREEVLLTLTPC
Assay: phage display selection in solution with the biotinylated carboxy terminal domain of HPL, capture on streptavidin beads

B1: HPL#22 (VHH)
VHH: QVQLQESGGGLVQAGGSLRLSCAASGSIRSISIMTWYRQAPGKERELVARMSSDGTTSYTDSMKGRFTISRDNAKNTVYLHMNNLKPEDTAVYYCKALISSYDGSWNDYGGQGTQVTVSS
  binding: binds

From patent US7361741
